The numbers were not newly measured in patent publication US20140248347A1, “PHARMACEUTICAL COMPOSITIONS OF N-METHYL-2-[3-((E)-2-PYRIDIN-2-YL-VINYL)-1H-INDAZOL-6-YLSULFANYL]-BENZAMIDE” (PFIZER INC., priority 2011, published 2014), which cites them from elsewhere.

One series has as its system endothelial cell. The following applies: background statement; cited from earlier work.
For series [1], the system named is vascular endothelial growth factor (VEGF) receptors 1, 2 and 3. Conditions: background statement; cited from earlier work.

For `CNC(=O)c1ccccc1Sc1ccc2c(/C=C/c3ccccn3)n[nH]c2c1` [axitinib, N-methyl-2-[3-((E)-2-pyridin-2-yl-vinyl)-1H-indazol-6-ylsulfanyl]-benzamide], in the series with endothelial cell, the “inhibition of VEGF-mediated endothelial cell proliferation and survival” value was “potently inhibit”. For the same molecule, the “inhibition of VEGF receptors 1, 2 and 3” value in series [1] was “potent and selective inhibitor”.
